Test results published in the supplement of paper PMC8616043.
Counter-ions that a name gives are not always drawn. Some of the results follow. Single values are uncertain here, since repeats match poorly.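 The cells are human U-2 OS cells that stably carry a GFP sensor with a nuclear import signal and a classical export signal. They were transfected to make PR50, a 50-repeat proline–arginine dipeptide protein from the ALS/FTD gene C9ORF72. Each well's nuclear-minus-cytoplasm GFP signal was scaled from in-plate DMSO (low) to PR-only wells (high), then scored against the other test wells on the plate; compounds scoring well below zero were called hits that reverse the PR effect.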

System: U-2 OS NCT-C biosensor cells expressing PR50
Assay: Z-score of normalised NCT-C biosensor translocation index in PR50-expressing cells; higher = more nuclear biosensor (more disrupted nuclear export)
Conditions: 3 µM; 24 h

Row | Structure (SMILES) | Z-score
1 | Nc1ncnc2c1ncn2[C@@H]1O[C@@H]2COP(=O)(O)O[C@H]2[C@H]1O [Adenosine 3',5'- cyclic monophosphate] | inactive: 0.847
2 | C[C@H]1[C@H]2CC[C@H]3[C@@H]4CC=C5C[C@@H](N(C)C)CC[C@]5(C)[C@H]4CC[C@]23CN1C [Conessine] | inactive: 0.0224
3 | CC(C)C(=O)c1c(C(C)C)nn2ccccc12 [Ibudilast] | inactive: 0.0283
4 | C[N+](C)(C)CC(O)CC(=O)[O-] (racemic) [(±)-Carnitine] | inactive: 0.307
5 | CC(CN(C)C)CN1c2ccccc2CCc2ccccc21 (stereo not given) [Trimipramine Maleate salt] | inactive: -1.24
6 | COC(=O)C(C)(N)Cc1ccc(O)cc1 (racemic) [alpha-Methyl-DL- tyrosine methyl ester HCl] | inactive: -0.111
7 | COC(=O)[C@H]1[C@H]2C[C@H]3c4[nH]c5ccccc5c4CCN3C[C@H]2CC[C@@H]1O [Rauwolscine] | inactive: -0.517
8 | CN1[C@@H]2CC[C@H]1C[C@@H](OC(=O)C(O)c1ccccc1)C2 (mixture of isomers) [DL-Homatropine hydrobromide] | inactive: -0.409
9 | CN1[C@@H]2CC[C@H]1C[C@@H](OC(=O)C(O)c1ccccc1)C2 (stereo not given in full) [Homatropine·HBr] | inactive: -0.286
10 | Cn1nnc2c(C(N)=O)ncn2c1=O [Temozolomide] | inactive: -0.121
11 | C=C1C(=O)O[C@H]2[C@H]1CC/C(C)=C/CC[C@@]1(C)O[C@@H]21 [Parthenolide] | inactive: 0.285
12 | O=C(O)COc1ccc(C(=O)c2cccs2)c(Cl)c1Cl [Tienilic Acid] | inactive: 0.214
13 | COc1ccc(CCn2nnnc2C2(c3ccc(C)cc3)CC2)cc1 [Mephetyl tetrazole] | inactive: 0.471
14 | Nc1nc(N)c2nc(-c3ccccc3)c(N)nc2n1 [Triamterene] | inactive: -0.125
15 | CC(C)(C)NC(=O)[C@H]1CC[C@H]2[C@@H]3CC[C@H]4NC(=O)C=C[C@]4(C)[C@H]3CC[C@]12C [Finasteride] | inactive: 0.461
16 | C=CC[N+]1([C@H]2C[C@H]3[C@@H]4CC[C@H]5C[C@H](O)[C@@H](N6CCOCC6)C[C@]5(C)[C@H]4CC[C@]3(C)[C@H]2OC(C)=O)CCCC1 [Rocuronium Bromide] | inactive: 0.446
17 | Cc1ccc(C(=O)N(CCCN)[C@@H](c2oc3cc(Cl)ccc3c(=O)c2Cc2ccccc2)C(C)C)cc1 | inactive: 1.35
18 | O=c1c(O)c(-c2ccc(O)cc2)oc2cc(O)cc(O)c12 [Kaempferol] | inactive: -0.395
19 | COc1cc2nc(N3CCN(C(=O)C4COc5ccccc5O4)CC3)nc(N)c2cc1OC (stereo not given) [Doxazosin mesylate] | inactive: -0.0874
20 | COc1cc2nc(N3CCN(C(=O)C4COc5ccccc5O4)CC3)nc(N)c2cc1OC (stereo not given) [Doxazosin Mesylate] | inactive: 0.275
21 | N[C@H]1CONC1=O [L-Cycloserine] | inactive: 1.36
22 | CCN(CC)CCOCCOC(=O)C1(c2ccccc2)CCCC1 [Carbetapentane citrate] | inactive: -0.293

Row | Structure (SMILES) | Z-score
23 | C[C@@H]1C[C@H]2[C@@H]3CCC4=CC(=O)C=C[C@]4(C)[C@@]3(F)[C@@H](O)C[C@]2(C)[C@H]1C(=O)CO [Desoximetasone] | inactive: -0.342
24 | COc1ccc(Oc2c(Cl)cnn(C3c4ccccc4-c4ccccc43)c2=O)cc1 | inactive: 0.0717
25 | O=c1[nH]ccc2c(O)cccc12 [1,5-  Isoquinolinediol] | inactive: 0.0717
26 | Cc1cc(C(C)(C)C)cc(C)c1CC1=NCCN1 [Xylometazoline hydrochloride] | inactive: -0.428
27 | CCN(CC)C(=O)C1(c2ccccc2)CC1CN (stereo not given) [Milnacipran·HCl] | inactive: -0.695
28 | O=C(c1cc(O)c(O)c([N+](=O)[O-])c1)c1ccccc1F | inactive: 1.03
29 | O=P(O)(O)C(O)(Cn1ccnc1)P(=O)(O)O [Zoledronic Acid Monohydrate] | inactive: -1.2
30 | O=P(O)(O)C(O)(Cn1ccnc1)P(=O)(O)O [Zoledronic acid monohydrate] | inactive: -0.507
31 | Nc1nc2c(cnn2CCc2ccccc2)c2nc(-c3ccco3)nn12 | inactive: 0.167
32 | NC[C@H]1O[C@H](O[C@H]2[C@H](O)[C@@H](O[C@H]3O[C@H](CO)[C@@H](O)[C@H](N)[C@H]3O)[C@H](N)C[C@@H]2N)[C@H](N)C[C@@H]1O [Tobramycin] | inactive: -0.14
33 | Nc1cc2c(ncn2CCOCP(=O)(O)O)c(=O)[nH]1 [PMEG hydrate] | inactive: 0.222
34 | CC1(C)O[C@@H]2C[C@H]3[C@@H]4C[C@H](F)C5=CC(=O)C=C[C@]5(C)[C@@]4(F)[C@@H](O)C[C@]3(C)[C@]2(C(=O)CO)O1 [Fluocinolone Acetonide] | inactive: 0.0611
35 | CC(C)[C@H](N)C(=O)OCCOCn1cnc2c(=O)nc(N)[nH]c21 [Valacyclovir·HCl] | inactive: 0.687
36 | CC(C)(O)[C@@H]1CC[C@](C)([C@H]2[C@@H](O)C[C@@]3(C)[C@@H]4C[C@H](O)[C@H]5C(C)(C)[C@@H](O)CC[C@@]56C[C@@]46CC[C@]23C)O1 [Cycloastragenol] | inactive: 0.144
37 | CN1CCN2c3ncccc3Cc3ccccc3C2C1 (stereo not given) [Mirtazapine] | inactive: -0.0541
38 | Cn1cc(C(F)(F)F)nc1-c1ccc(OCC(O)CNCCOc2ccc(O)c(C(N)=O)c2)cc1 (stereo not given) | inactive: -1.62
39 | C[C@@H]1C/C=C/C=C/C=C/C=C/[C@H](O[C@@H]2O[C@H](C)[C@@H](O)[C@H](N)[C@@H]2O)C[C@@H]2O[C@](O)(C[C@@H](O)C[C@H]3O[C@@H]3/C=C/C(=O)O1)C[C@H](O)[C@H]2C(=O)O [Natamycin] | inactive: -0.642
40 | C[C@@H]1C/C=C/C=C/C=C/C=C/[C@H](O[C@@H]2O[C@H](C)[C@@H](O)[C@H](N)[C@@H]2O)C[C@@H]2O[C@](O)(C[C@@H](O)C[C@H]3O[C@@H]3/C=C/C(=O)O1)C[C@H](O)[C@H]2C(=O)O [Pimaricin] | inactive: -0.41
41 | NC(C(=O)O)C(O)C(=O)O (racemic) [DL-threo-beta- Hydroxyaspartic acid] | inactive: -0.213
42 | O=C(O)C1=CC(=C(c2ccc(O)c(C(=O)O)c2)c2ccc(O)c(C(=O)O)c2)C=CC1=O [Aurintricarboxylic acid] | inactive: -0.187
43 | CC#C[C@]1(O)CC[C@H]2[C@@H]3CCC4=CC(=O)CCC4=C3[C@@H](c3ccc(N(C)C)cc3)C[C@@]21C [Mifepristone] | inactive: 0.758
44 | Nc1c(O)cc(O)cc1C=Cc1ccc(O)cc1 [Aminoresveratrol sulfate] | inactive: -1.89

From entry 33 to 37, copied from above:
Row | Structure (SMILES) | Z-score
33 | Nc1cc2c(ncn2CCOCP(=O)(O)O)c(=O)[nH]1 [PMEG hydrate] | inactive: 0.222
34 | CC1(C)O[C@@H]2C[C@H]3[C@@H]4C[C@H](F)C5=CC(=O)C=C[C@]5(C)[C@@]4(F)[C@@H](O)C[C@]3(C)[C@]2(C(=O)CO)O1 [Fluocinolone Acetonide] | inactive: 0.0611
35 | CC(C)[C@H](N)C(=O)OCCOCn1cnc2c(=O)nc(N)[nH]c21 [Valacyclovir·HCl] | inactive: 0.687
36 | CC(C)(O)[C@@H]1CC[C@](C)([C@H]2[C@@H](O)C[C@@]3(C)[C@@H]4C[C@H](O)[C@H]5C(C)(C)[C@@H](O)CC[C@@]56C[C@@]46CC[C@]23C)O1 [Cycloastragenol] | inactive: 0.144
37 | CN1CCN2c3ncccc3Cc3ccccc3C2C1 (stereo not given) [Mirtazapine] | inactive: -0.0541

(further entries)

Row | Structure (SMILES) | Z-score
45 | COc1ccc(Cl)cc1C(=O)NCCc1ccc(S(=O)(=O)NC(=O)NC2CCCCC2)cc1 [Glyburide] | inactive: -0.458
46 | COc1ccc(Cl)cc1C(=O)NCCc1ccc(S(=O)(=O)NC(=O)NC2CCCCC2)cc1 [Glybenclamide] | inactive: -0.294
47 | Nc1nc(=O)n([C@@H]2CS[C@H](CO)O2)cc1F [Emtricitabine] | inactive: 0.373
48 | NC(N)=NCCCC(NC(=O)C(N)Cc1ccc(O)cc1)C(=O)O (stereo not given) [Kyotorphin acetate salt] | inactive: -0.0968
49 | CCCOc1ccccc1-c1nc2[nH]nnc2c(=O)[nH]1 [Zaprinast] | inactive: 0.0952
50 | CCCCCCNC(=O)n1cc(F)c(=O)[nH]c1=O [Carmofur] | inactive: 0.0591
51 | O=C(O)/C=C\C(=O)Nc1ccc(Oc2cccc(Oc3ccc(NC(=O)/C=C\C(=O)O)cc3)c2)cc1 | inactive: -0.596
52 | COC(=O)C1=CO[C@@H](O)[C@@H]2C(CO)=CC[C@H]12 [Genipin] | inactive: -0.401
53 | COc1cc2c(NC3CCN(C(C)C)CC3)nc(N3CCC(F)(F)CC3)nc2cc1OCCCN1CCCC1 | active: -2.3
54 | O=C(O)CCC(C(=O)O)N1C(=O)c2ccccc2C1=O [L-Glutamic acid, N- phthaloyl-] | inactive: 1.5
55 | Clc1ccc2nsnc2c1NC1=NCCN1 [Tizanidine hydrochloride] | inactive: -0.537
56 | Clc1ccc2nsnc2c1NC1=NCCN1 [Tizanidine·HCl] | inactive: -0.254
57 | CC(=O)Nc1nnc(S(N)(=O)=O)s1 [Acetazolamide] | inactive: 0.292
58 | Nc1nc(OCc2cc(Br)cs2)c2[nH]cnc2n1 [Lomeguatrib] | inactive: -0.149
59 | Cc1cc2cc3c(C)cc(=O)oc3c(C)c2o1 [4,5',8-Trimethylpsoralen] | inactive: -0.8
60 | N#C/C(=C1/SC[C@@H](c2ccc(Cl)cc2Cl)S1)n1ccnc1 [Luliconazole] | inactive: -0.37
61 | C[C@H]1CC[C@@]2(OC1)O[C@H]1C[C@H]3[C@@H]4CC[C@@H]5C[C@@H](O)CC[C@]5(C)[C@H]4CC[C@]3(C)[C@H]1[C@@H]2C [Sarsasapogenin] | inactive: 0.327
62 | Cc1ccc(C(=O)Nc2sc(Nc3ccccc3)nc2C(N)=O)cc1 | inactive: 0.441
63 | C=C1O[C@@](CO)(n2cnc3c(N)ncnc32)[C@H](O)[C@@H]1O [Decoyinine] | inactive: -0.715
64 | O=C1/C(=C/c2ccc(O)c(O)c2)Oc2c1ccc(O[C@@H]1O[C@H](CO)[C@@H](O)[C@H](O)[C@H]1O)c2O [Maritimein] | inactive: -0.126
65 | O=C(/C=C/c1ccc(O)c(O)c1)O[C@H](Cc1ccc(O)c(O)c1)C(=O)O [Rosmarinic acid] | inactive: -0.848
